# This is one part of the list.
# B1: Gal 12 (Homo sapiens), Q96DT0 (protein)
# chain: MSQPSGGRAPGTRIYSWSCPTVMSPGEKLDPIPDSFILQPPVFHPVVPYVTTIFGGLHAGKMVMLQGVVPLDAHRFQVDFQCGCSLCPRPDIAFHFNPRFHTTKPHVICNTLHGGRWQREARWPHLALRRGSSFLILFLFGNEEVKVSVNGQHFLHFRYRLPLSHVDTLGIFGDILVEAVGFLNINPFVEGSREYPAGHPFLLMSPRLEVPCSHALPQGLSPGQVIIVRGLVLQEPKHFTVSLRDQAAHAPVTLRASFADRTLAWISRWGQKKLISAPFLFYPQRFFEVLLLFQEGGLKLALNGQGLGATSMNQQALEQLRELRISGSVQLYCVHS
# What was measured:
# Assay in all cases: glycan array binding signal (z-score within array); higher = stronger binding
# Details in all cases: glycan notation: IUPAC condensed, linker removed
# Neu5Ac(a2-6)GalNAc = molecular target: Neu5Ac(a2-6)GalNAc
# Method in brief: (§1)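 Negative Z-scores can be read as non-binding. The Z-score is calculated within each array and then averaged across arrays of one protein sequence at different concentrations or buffers and across linkers. Arrays, 3228 in all, were curated from the Consortium for Functional Glycomics database and kept only where the protein sequence was available.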
# [1] = molecular target: Neu5Ac(a2-6)GalNAc(b1-4)GlcNAc
# Method in brief: as §1
# [2] = molecular target: Neu5Ac(a2-6)GalNAc(b1-4)GlcNAc6S
# Method in brief: as §1
# [3] = molecular target: Neu5Ac(a2-6)GlcNAc(b1-4)GlcNAc
# Method in brief: as §1
# [4] = molecular target: Neu5Ac(a2-6)GlcNAc(b1-4)GlcNAc(b1-4)GlcNAc
# Method in brief: as §1
# Neu5Ac(a2-8)Neu5Ac = molecular target: Neu5Ac(a2-8)Neu5Ac
# Method in brief: as §1
# [5] = molecular target: Neu5Ac(a2-8)Neu5Ac(a2-3)Gal(b1-3)GalNAc(b1-4)[Neu5Ac(a2-3)]Gal(b1-4)Glc
# Method in brief: as §1
# [6] = molecular target: Neu5Ac(a2-8)Neu5Ac(a2-3)Gal(b1-3)GalNAc(b1-4)[Neu5Ac(a2-8)Neu5Ac(a2-3)]Gal(b1-4)Glc
# Method in brief: as §1
# [7] = molecular target: Neu5Ac(a2-8)Neu5Ac(a2-3)Gal(b1-4)Glc
# Method in brief: as §1
# [8] = molecular target: Neu5Ac(a2-8)Neu5Ac(a2-3)Gal(b1-4)GlcNAc
# Method in brief: as §1
# [9] = molecular target: Neu5Ac(a2-8)Neu5Ac(a2-3)[Gal(b1-3)GalNAc(b1-4)]Gal(b1-4)Glc
# Method in brief: as §1
# [10] = molecular target: Neu5Ac(a2-8)Neu5Ac(a2-3)[GalNAc(b1-4)]Gal(b1-4)Glc
# Method in brief: as §1
# [11] = molecular target: Neu5Ac(a2-8)Neu5Ac(a2-8)Neu5Ac
# Method in brief: as §1
# [12] = molecular target: Neu5Ac(a2-8)Neu5Ac(a2-8)Neu5Ac(a2-3)Gal(b1-4)Glc
# Method in brief: as §1
# [13] = molecular target: Neu5Ac(a2-8)Neu5Ac(a2-8)Neu5Ac(a2-3)[Gal(b1-3)GalNAc(b1-4)]Gal(b1-4)Glc
# Method in brief: as §1
# [14] = molecular target: Neu5Ac(a2-8)Neu5Ac(a2-8)Neu5Ac(a2-3)[GalNAc(b1-4)]Gal(b1-4)Glc
# Method in brief: as §1
# [15] = molecular target: Neu5Ac(a2-8)Neu5Ac(a2-8)Neu5Ac(a2-8)Neu5Ac(a2-3)[GalNAc(b1-4)]Gal(b1-4)Glc
# Method in brief: as §1
# [16] = molecular target: Neu5Ac(a2-8)Neu5Gc(a2-3)Gal(b1-4)GlcNAc
# Method in brief: as §1
# [17] = molecular target: Neu5Ac(b2-6)Gal(b1-4)GlcNAc
# Method in brief: as §1
# Neu5Ac(b2-6)GalNAc = molecular target: Neu5Ac(b2-6)GalNAc
# Method in brief: as §1
# [18] = molecular target: Neu5Ac9Ac(a2-3)Gal(b1-3)GlcNAc
# Method in brief: as §1
# [19] = molecular target: Neu5Ac9Ac(a2-3)Gal(b1-4)GlcNAc
# Method in brief: as §1
# [20] = molecular target: Neu5Ac9Ac(a2-6)Gal(b1-4)GlcNAc
# Method in brief: as §1
# [21] = molecular target: Neu5Gc(a2-3)Gal(b1-3)GlcNAc
# Method in brief: as §1
# [22] = molecular target: Neu5Gc(a2-3)Gal(b1-3)[Fuc(a1-4)]GlcNAc
# Method in brief: as §1
# Neu5Gc(a2-3)Gal(b1-4)Glc = molecular target: Neu5Gc(a2-3)Gal(b1-4)Glc
# Method in brief: as §1
# [23] = molecular target: Neu5Gc(a2-3)Gal(b1-4)GlcNAc
# Method in brief: as §1
# [24] = molecular target: Neu5Gc(a2-3)Gal(b1-4)GlcNAc(b1-3)Gal(b1-4)GlcNAc(b1-2)Man(a1-3)[Neu5Gc(a2-3)Gal(b1-4)GlcNAc(b1-3)Gal(b1-4)GlcNAc(b1-2)Man(a1-6)]Man(b1-4)GlcNAc(b1-4)GlcNAc
# Method in brief: as §1
# [25] = molecular target: Neu5Gc(a2-3)Gal(b1-4)[Fuc(a1-3)]GlcNAc
# Method in brief: as §1
# [26] = molecular target: Neu5Gc(a2-6)Gal(b1-4)GlcNAc
# Method in brief: as §1
# Neu5Gc(a2-6)GalNAc = molecular target: Neu5Gc(a2-6)GalNAc
# Method in brief: as §1
# [27] = molecular target: Neu5Gc(a2-8)Neu5Ac(a2-3)Gal(b1-4)GlcNAc
# Method in brief: as §1
# [28] = molecular target: Neu5Gc(a2-8)Neu5Gc(a2-3)Gal(b1-4)GlcNAc
# Method in brief: as §1
# [29] = molecular target: Neu5Gc(a2-8)Neu5Gc(a2-3)Gal(b1-4)GlcNAc(b1-3)Gal(b1-4)GlcNAc
# Method in brief: as §1
# [30] = molecular target: Neu5Gc(a2-8)Neu5Gc(a2-6)Gal(b1-4)GlcNAc
# Method in brief: as §1
# [31] = molecular target: Neu5Gc(b2-6)Gal(b1-4)GlcNAc
# Method in brief: as §1
binder,measurement,setting,value
B1,glycan array binding signal (z-score),Neu5Ac(a2-6)GalNAc,-0.375
same,glycan array binding signal (z-score),[1],-0.032
same,glycan array binding signal (z-score),[2],-0.644
same,glycan array binding signal (z-score),[3],-0.842
same,glycan array binding signal (z-score),[4],0.332
same,glycan array binding signal (z-score),Neu5Ac(a2-8)Neu5Ac,-0.644
same,glycan array binding signal (z-score),[5],-0.299
same,glycan array binding signal (z-score),[6],0.155
same,glycan array binding signal (z-score),[7],0.311
same,glycan array binding signal (z-score),[8],-0.035
same,glycan array binding signal (z-score),[9],0.301
same,glycan array binding signal (z-score),[10],-0.207
same,glycan array binding signal (z-score),[11],0.004
same,glycan array binding signal (z-score),[12],-0.275
same,glycan array binding signal (z-score),[13],0.98
same,glycan array binding signal (z-score),[14],0.342
same,glycan array binding signal (z-score),[15],0.265
same,glycan array binding signal (z-score),[16],0.068
same,glycan array binding signal (z-score),[17],-0.611
same,glycan array binding signal (z-score),Neu5Ac(b2-6)GalNAc,-0.652
same,glycan array binding signal (z-score),[18],-0.24
same,glycan array binding signal (z-score),[19],0.03
same,glycan array binding signal (z-score),[20],0.001
same,glycan array binding signal (z-score),[21],-0.108
same,glycan array binding signal (z-score),[22],0.51
same,glycan array binding signal (z-score),Neu5Gc(a2-3)Gal(b1-4)Glc,-0.468
same,glycan array binding signal (z-score),[23],0.142
same,glycan array binding signal (z-score),[24],-0.256
same,glycan array binding signal (z-score),[25],0.879
same,glycan array binding signal (z-score),[26],-0.169
same,glycan array binding signal (z-score),Neu5Gc(a2-6)GalNAc,-0.417
same,glycan array binding signal (z-score),[27],-0.202
same,glycan array binding signal (z-score),[28],-0.454
same,glycan array binding signal (z-score),[29],-0.745
same,glycan array binding signal (z-score),[30],0.282
same,glycan array binding signal (z-score),[31],-0.218

# Laid out differently: results already given.
binder | measurement | setting | value
B1 | glycan array binding signal (z-score) | [4] | 0.332
same | glycan array binding signal (z-score) | [7] | 0.311
